Reference: PubChem BioAssay AID2551 (National Center for Advancing Translational Sciences (NCATS), 2010)
Screen size: about 310,000 compounds; about 17,000 (5.5%) were called active. The shares of active, inactive and inconclusive entries below differ from those in the screen. Calls follow the shape of the dose curve; as a rule, active = well fitted inhibition curve with a large enough effect; inconclusive = small, poorly fitted or top-dose-only effect, or effect the other way; inactive = no such curve, though single readings can be large or run the other way. Where the call is inconclusive, the potency comes from a doubtful curve fit.

Chains of the proteins cited; added tags and fusions are not shown. Lines headed by an entry give the natural chain unless they say otherwise; changes in a name come on top.
UniProt P51450: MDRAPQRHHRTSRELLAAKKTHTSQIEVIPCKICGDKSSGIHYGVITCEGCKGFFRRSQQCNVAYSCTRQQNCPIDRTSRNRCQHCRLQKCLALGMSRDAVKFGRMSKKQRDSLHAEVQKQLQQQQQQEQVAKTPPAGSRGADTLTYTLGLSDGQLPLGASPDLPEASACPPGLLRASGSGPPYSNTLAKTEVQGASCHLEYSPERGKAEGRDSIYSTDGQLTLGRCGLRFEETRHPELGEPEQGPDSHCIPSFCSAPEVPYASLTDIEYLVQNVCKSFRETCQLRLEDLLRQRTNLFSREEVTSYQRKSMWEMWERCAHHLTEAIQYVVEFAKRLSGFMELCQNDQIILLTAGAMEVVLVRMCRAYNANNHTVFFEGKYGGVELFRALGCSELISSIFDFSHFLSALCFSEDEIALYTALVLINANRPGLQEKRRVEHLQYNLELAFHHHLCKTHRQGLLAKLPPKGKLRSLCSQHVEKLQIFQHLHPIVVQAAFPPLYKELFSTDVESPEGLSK

The molecules below were run against Nuclear receptor ROR-gamma (Mus musculus) (UniProt P51450) (assay: qHTS for inhibitors of ROR gamma transcriptional activity). Settings: Drosophila S2 Gal4-RORgamma UAS-luciferase reporter, 20 h; series mostly up to 53.6 µM.
In short: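 Stably transfected Drosophila Schneider cells are the test system, with ROR gamma fused to Gal4 and luciferase under UAS control; luminescence is read after 20 hr of 700 uM copper sulfate induction at ambient temperature.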
Also: nearly all actives have a fitted effect of over 60% in size.
Potency is read from the fitted curve at half-maximal effect.

Q: For CC(=O)Nc1ccc(S(=O)(=O)N2CCN(c3cc(C(F)(F)F)ccn3)CC2)cc1, which Potency is on record?
A: inconclusive: 35.5 µM [activator, single point]

Q: For O=C1c2ccccc2C(=O)N1CCN1CCc2ccccc21, which Potency is on record?
A: inactive

Q: Which Potency does the source give for Fc1cc(Br)ccc1Nc1nc2ccccc2n2nnnc12 here?
A: inconclusive: 35.5 µM [inhibitor, single point]

Q: COC(=O)c1ccc(Oc2c(F)c(F)nc(N3CCOCC3)c2F)cc1 was tested. Which Potency did it give?
A: inconclusive: 12.6 µM [activator, partial curve]

Q: CCOC(=O)c1cc2c(=O)n3ccccc3nc2n(CC2CCCO2)c1=NC(=O)/C=C/c1ccccc1 (stereo unspecified) was tested. Which Potency did it give?
A: inconclusive: 35.5 µM [inhibitor, single point]

Q: With COc1cc2ccccc2cc1C(=O)N(CCN(C)C)c1nc2c(OC)ccc(OC)c2s1 as the molecule, how does the Potency read?
A: inconclusive: 35.5 µM [inhibitor, single point]

Q: How did the Potency turn out when Cn1c(=NC(=O)c2cnccn2)sc2ccccc21 was run?
A: inconclusive: 12.6 µM [inhibitor, single point]

Q: With COc1cc(CN2CCC(Cc3ccccc3)CC2)cc(OC)c1OC as the molecule, how does the Potency read?
A: inactive

Q: With Cc1cccc(NC(=S)N2CCCCCC2)c1 as the molecule, how does the Potency read?
A: inconclusive: 15.8 µM [inhibitor, single point]

Q: With CCCC1=Nc2cc(C(=O)NCCN3CCOCC3)ccc2Sc2ccccc21 as the molecule, how does the Potency read?
A: inactive

Q: With c1ccc(-c2cc3c(NCC4COc5ccccc5O4)ncnc3s2)cc1 (stereo unspecified) as the molecule, how does the Potency read?
A: inconclusive: 5.01 µM [activator, single point]

Q: With Cc1ccc(-c2cc3c(N=O)c4ccccc4c-3n[nH]2)cc1 as the molecule, how does the Potency read?
A: active: 10 µM

Q: For Cc1ccc(NC2=NC(c3ccc(C)cc3)n3c(nc(C)cc3=O)N2)cc1 (stereo unspecified), which Potency is on record?
A: inactive

Q: For COc1ccc(C2SCC(=O)N2c2nnc(C34CC5CC(CC(C5)C3)C4)s2)cc1 (stereo unspecified), which Potency is on record?
A: inactive

Q: With COc1cc(OC)c2c(-c3ccccc3)cc(=O)oc2c1C(CC(=O)N1CCOCC1)c1ccc(N(C)C)cc1 (stereo unspecified) as the molecule, how does the Potency read?
A: inconclusive: 0.398 µM [activator, partial curve]

Q: Which Potency does the source give for Cn1cc(SCC(=O)NCc2ccc3c(c2)OCO3)c2ccccc21 here?
A: inconclusive: 35.5 µM [activator, single point]

Q: With O=C(Cc1ccc(Br)cc1)NC1CCCCC1 as the molecule, how does the Potency read?
A: inconclusive: 35.5 µM [activator, single point]

Q: O=C1OC(OC(=O)c2ccccc2Br)C(N2CCOCC2)=C1Cl (stereo unspecified) was tested. Which Potency did it give?
A: inconclusive: 15.8 µM [inhibitor, single point]

Q: For Cc1ccnc(SCC(=O)Nc2sc3c(c2C#N)CCC(C(C)(C)C)C3)n1 (stereo unspecified), which Potency is on record?
A: inactive

Q: With CC(C)(C)NC(=S)NC(=O)C12CCC3CC(CC(C3)C1)C2 as the molecule, how does the Potency read?
A: active: 0.708 µM

Q: Which Potency does the source give for CS(=O)(=O)N(CC(=O)NCCC1=CCCCC1)C1CCCCC1 here?
A: inactive

Q: CCOC(=O)c1nc(NCc2ccccc2)c2ccccc2n1 was tested. Which Potency did it give?
A: inconclusive: 35.5 µM [inhibitor, single point]

Q: Which Potency does the source give for O=C(CSCc1ccccc1Br)NNC(=S)NCc1ccco1 here?
A: inconclusive: 22.4 µM [inhibitor, single point]

Q: For O=C(c1ccc(C#CC2(O)CCCCC2)cc1)N1CCOCC1, which Potency is on record?
A: inconclusive: 7.94 µM [activator, partial curve]

Q: With Cc1ccc(C)c(OCC(=O)Nc2ccc(C(=O)O)cc2NC(=O)COc2cc(C)ccc2C)c1 as the molecule, how does the Potency read?
A: inconclusive: 28.2 µM [activator, single point]

Q: NC(=S)N/N=C/c1c(O)c(Br)cc2oc3c(c12)CCCC3 was tested. Which Potency did it give?
A: active: 7.94 µM

Q: Which Potency does the source give for Cc1[nH]c2ccccc2c1NC(=O)CN1CCN(c2cccc(C(F)(F)F)c2)CC1 here?
A: inconclusive: 31.6 µM [activator, single point]

Q: Which Potency does the source give for CCCOc1ccc(C(=O)NC(=S)Nc2nc3ccc(C)cc3s2)cc1 here?
A: inconclusive: 0.447 µM [inhibitor, full curve]

Q: CCOC(=O)SC1=N/C(=C\c2ccc(N(C)C)cc2)C(=O)S1 was tested. Which Potency did it give?
A: active: 12.6 µM

Q: With COc1cccc(NC(=O)CSc2c3c(nc4ccccc24)CCCC3)c1 as the molecule, how does the Potency read?
A: inconclusive: 10 µM [activator, partial curve]

Q: Which Potency does the source give for Nc1nc(NC(=O)c2cccs2)nn1-c1ccccc1 here?
A: inconclusive: 35.5 µM [inhibitor, single point]

Q: With O=C(O)c1cc(-c2ccc(-c3ccc(F)cc3)o2)nc2ccccc12 as the molecule, how does the Potency read?
A: inconclusive: 11.2 µM [inhibitor, single point]

Q: For Cc1nc(N2CCN(c3ccccn3)CC2)c2c(C)c(C(=O)Nc3ccc(F)cc3F)sc2n1, which Potency is on record?
A: inconclusive: 14.1 µM [activator, partial curve]

Q: CC(C)c1ccc(OC(=O)NCCO)cc1 was tested. Which Potency did it give?
A: inactive

Q: For Cc1cccc(NC(=S)N2CCN(S(=O)(=O)c3ccc(F)cc3)CC2)c1, which Potency is on record?
A: active: 12.6 µM

Q: How did the Potency turn out when COc1ccc(C2/C(=C(\O)c3ccc4c(c3)OCCO4)C(=O)C(=O)N2c2nc(C)c(C(C)=O)s2)cc1 (stereo unspecified) was run?
A: inactive

Q: Which Potency does the source give for O=C(CN1CCCc2ccccc21)N/N=C/c1ccccc1O here?
A: active: 0.251 µM

Q: For COc1cccc(NC(=S)N(Cc2ccccn2)Cc2ccccc2Cl)c1, which Potency is on record?
A: active: 6.31 µM

Q: For CN(C)S(=O)(=O)c1cc(NC(=O)CN2CCN(c3ccccc3F)CC2)ccc1Cl, which Potency is on record?
A: inactive

Q: Which Potency does the source give for COc1ccc(/C=c2\sc3nc(-c4ccccc4OC)nn3c2=O)c(OC)c1 here?
A: inconclusive: 2.82 µM [inhibitor, single point]

Q: For O=C(N/N=C/c1ccsc1)C1CC1, which Potency is on record?
A: inactive

Q: C/C(=N\NC(=O)Cn1nc(C)c(Br)c1C)c1cccs1 was tested. Which Potency did it give?
A: inactive

Q: How did the Potency turn out when COc1ccc(C(=O)Sc2nncc3ccccc23)cc1 was run?
A: active: 11.2 µM

Q: With Cn1c(=O)c2c(nc(CN3CCN(Cc4ccccc4)CC3)n2Cc2cccc(Cl)c2)n(C)c1=O as the molecule, how does the Potency read?
A: inactive

Q: With COc1ccc(C)cc1NC(=O)CCN1CC(C)OC(C)C1 (stereo unspecified) as the molecule, how does the Potency read?
A: inactive

Q: With O=C(CSc1nc(-c2ccccc2)nc2ccccc12)Nc1nccs1 as the molecule, how does the Potency read?
A: active: 11.2 µM

Q: How did the Potency turn out when CCCCOc1ccc(NC(=O)[C@@H]2CCCN2C(=O)C2CCN(S(=O)(=O)c3ccc(C)cc3)CC2)cc1 was run?
A: inconclusive: 35.5 µM [activator, single point]

Q: With CCC(=O)Nc1nc2n(n1)C(c1ccc(OC)cc1)C=C(c1ccccc1)N2 (stereo unspecified) as the molecule, how does the Potency read?
A: inconclusive: 12.6 µM [activator, single point]

Q: For O=C(Nc1nnc(-c2ccncc2)o1)c1ccc(Br)s1, which Potency is on record?
A: active: 0.891 µM

Q: With Cc1ccc(S(=O)(=O)N2CCCN(S(=O)(=O)c3ccc(C(F)(F)F)cc3)CC2)cc1 as the molecule, how does the Potency read?
A: inactive

Q: Cn1c(SCC(=O)Nc2ccccc2Cl)nnc1C1CC1 was tested. Which Potency did it give?
A: inactive

Q: With CC(C)c1ccc(N2CCN(C(=O)c3ccccc3NC(=O)/C=C(\C(=O)O)c3ccccc3)CC2)cc1 as the molecule, how does the Potency read?
A: active: 3.16 µM

Q: With Cc1cccc2nc(-c3ccccc3)nc(N[C@@H](CO)c3ccccc3)c12 as the molecule, how does the Potency read?
A: inconclusive: 15.8 µM [activator, single point]

Q: Which Potency does the source give for O=C(/C=C/Nc1ccccc1C(=O)O)c1cccs1 here?
A: inconclusive: 35.5 µM [inhibitor, single point]

Q: Which Potency does the source give for O=C(Nc1nc2c(s1)CCCC2)c1ccc(N2C(=O)CCC2=O)cc1 here?
A: inconclusive: 1.78 µM [activator, single point]

Q: CCOC(=O)N1CCC(n2c(=S)[nH]c3ccccc3c2=O)CC1 was tested. Which Potency did it give?
A: active: 8.91 µM

Q: Which Potency does the source give for CC(=O)C1=C(S(=O)(=O)c2ccc(C)cc2)CS(=O)(=O)C1 here?
A: inconclusive: 35.5 µM [inhibitor, single point]

Q: Which Potency does the source give for Cc1cc(NCc2ccccn2)ccc1Br here?
A: inactive

Q: For Cc1ccc(-c2cc(-c3ccccc3)no2)c(O)c1, which Potency is on record?
A: inconclusive: 20 µM [inhibitor, single point]

Q: With CC(/C=C1\SC(=S)N(NC(=O)c2ccc(O)cc2)C1=O)=C\c1ccccc1 as the molecule, how does the Potency read?
A: inconclusive: 35.5 µM [inhibitor, single point]

Q: Cc1cc(Cl)c(O)c(-n2nc3ccccc3n2)c1 was tested. Which Potency did it give?
A: inactive

Q: Which Potency does the source give for Cc1ccc(N=C(N)N=C(N)N)cc1 here?
A: inactive

Q: Which Potency does the source give for CC(=O)c1ccc(N2CCN(C(=S)Nc3cc(C)ccc3C)CC2)cc1 here?
A: inconclusive: 35.5 µM [inhibitor, single point]

Q: Which Potency does the source give for Cn1cccc1/C=N/n1c(-c2ccc(Cl)cc2Cl)n[nH]c1=S here?
A: active: 2.82 µM

Q: With COC(=O)c1ccc(C(NC(=O)OCc2ccccc2)/C(I)=C/[C@@H](C)C(=O)NCc2ccncc2)cc1 (stereo partly specified) as the molecule, how does the Potency read?
A: inconclusive: 7.08 µM [activator, full curve]

Q: Cc1ccc(-c2cc(C(=O)N/N=C/c3ccccc3O)n[nH]2)o1 was tested. Which Potency did it give?
A: inconclusive: 11.2 µM [inhibitor, partial curve, poor fit]

Q: How did the Potency turn out when Cn1ccc(C(=O)N/N=C/c2c[nH]c3ccccc23)n1 was run?
A: inactive

Q: For C=CCN=C1CC(C)(C)CC(=O)/C1=C(\O)CCCN1C(=O)c2ccccc2C1=O, which Potency is on record?
A: inconclusive: 22.4 µM [activator, single point]

Q: CCC(C)(C)NC(=O)CCn1c(-c2ccccc2)cc(C(C)=O)c1C was tested. Which Potency did it give?
A: inactive

Q: For O=C(N/N=C/c1cccc([N+](=O)[O-])c1)C1CC(=O)N(c2ccc(Cl)cc2)C1 (stereo unspecified), which Potency is on record?
A: inconclusive: 14.1 µM [activator, single point]

Q: Which Potency does the source give for COCCCNC(=S)NC1CCCCC1 here?
A: active: 11.2 µM

Q: With O=C(CCS(=O)(=O)c1ccccc1)Nc1nc(-c2cccs2)cs1 as the molecule, how does the Potency read?
A: inconclusive: 12.6 µM [activator, partial curve]

Q: Cc1ccc(O)c(NC(=S)NC(=O)COc2ccc(Br)cc2)c1 was tested. Which Potency did it give?
A: inconclusive: 35.5 µM [inhibitor, single point]

Q: For COc1cccc(/C=N/Nc2ccc([N+](=O)[O-])cn2)c1O, which Potency is on record?
A: active: 4.47 µM

Q: C#CC[N+]1(CC#Cc2cccc(C)c2)CCCCC1 was tested. Which Potency did it give?
A: inactive

Q: With COc1cc(OC)cc(N(C(=O)c2snc(C(N)=O)c2N)C(C(=O)NCC2CCCO2)c2ccc(C)o2)c1 (stereo unspecified) as the molecule, how does the Potency read?
A: inactive
